Results are given in words; binding and its absence hold for the method and conditions named. In cells and extracts the contact can be indirect. A result given as binding can be weak or reduced; the word gives no strength. Where a sequence is shown, tags or fusion partners need not be part of it. One block for each binder: values may come before it.
What was measured:
[1] = target: SRAS1.2-cYFP (Arabidopsis thaliana) (UniProt Q9FKX5); assay: split reporter; BiFC in N. benthamiana leaves; cYFP and nYFP fusions; confocal microscopy after 48 h
[2] = target: SRAS1.2-cLUC (Arabidopsis thaliana) (UniProt Q9FKX5); assay: split reporter; luciferase complementation imaging (LCI) in N. benthamiana leaves; cLUC and nLUC fusions; 0.2 mM D-luciferin, CCD camera

The chains behind the UniProt entries cited, without tags or fusion partners. Where a name states a change or a piece, a line headed by the entry shows the natural chain unless it says otherwise.
UniProt Q9FKX5: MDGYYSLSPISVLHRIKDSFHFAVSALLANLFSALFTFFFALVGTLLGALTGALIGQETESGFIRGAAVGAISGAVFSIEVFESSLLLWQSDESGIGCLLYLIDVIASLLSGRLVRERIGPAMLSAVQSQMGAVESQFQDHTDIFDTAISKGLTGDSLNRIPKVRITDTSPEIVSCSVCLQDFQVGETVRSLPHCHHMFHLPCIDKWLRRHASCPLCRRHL

binding [1]: binds
B1: nYFP-DSK2B (protein, UniProt Q9SII8 1-551)
chain: MGGEGDSSQPQSGEGEAVAVNIRCSNGTKFSVKTSLDSTVESFKELVAQSSDVPANQQRLIYKGRILKDDQTLLSYGLQADHTIHMVRGSAPSSAPPPAPAASQTTAPSVTRGVGSDNSSNLGGASPGESLFPGLGFNPLGGGNAMSGLFGAGLPDLVQTQQQLAQNPNMIRDMMNTPAIQNLMNNPEFMRSMIMNNPQMRELVDRNPELGHVLNDPSILRQTLEAARNPELMREMMRNTDRAMSNIESMPEGFNMLRRMYENVQEPLMNATTMSGNAGNNTGSNPFAALLGNQGVTTQGSDASNNSSTPNAGTGTIPNANPLPNPWGATGGQTTAPGRTNVGGDARSPGLGGLGGLGSLGGLGGLGMLGADSPLGATPDASQLSQLLQNPAISQMMQSVFSNPQYMNQLMSLNPQLRSMLDSNPQLREMMQNPDFLRQFSSPEMMQQMMTLQQSLSQNRNTASQDAGQTGAATGNNGGLDLLMNMFGSLGAGGLSGTNQSNVPPEERYATQLQQLQEMGFYDRAENIRALLATNGNVNAAVERLLGSIGQ

binding [2]: binds
B2: nLUC-DSK2B (protein, UniProt Q9SII8 1-551)
chain: B1 chain

— article PMC12508185
